# PubChem BioAssay AID1745850 (National Center for Advancing Translational Sciences (NCATS), 2022)
# Out of some 2,100 compounds screened, about 260 (12%) were called active. The shares of active, inactive and inconclusive entries below differ from those in the screen. Calls follow the shape of the dose curve; as a rule, active = well fitted cell-killing curve with a large enough effect; inconclusive = small, poorly fitted or top-dose-only effect, or effect the other way; inactive = flat fitted curve, though single readings scatter. Where the call is inconclusive, the potency comes from a doubtful curve fit.
# Test: Viability Counterscreen for Confirmatory qHTS for Inhibitors of ATXN expression; also: nearly all actives have a fitted effect of over 50% in size
# Conditions: HEK-293 ATXN2-luc cells viability, CellTiter-Fluor, 24 h
# Summary of the method: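 Cells with an ATXN2-luciferase reporter were dosed in a dilution series for 24 h at 37 degrees C. Viability was read first with Gly-Phe-AFC at 25 uM final (fluorescence, ex 405/em 540), then SteadyGlo luminescence. Medium-only wells defined 100% inhibition.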
# Potency is read from the fitted curve at half-maximal effect.
row,Compound,Potency
1,O=C(/C=C/c1ccccc1)c1cc(Br)ccc(=O)c1O,active: 22.4 µM
2,Cc1ccc(C(=O)N/N=C/c2nc3ccccc3n2C)cc1,inactive
3,CCN(CC)CCn1c2ccccc2c2cnc(N)c(C#N)c21,"inconclusive: 7.08 µM [cytotoxic, partial curve, poor fit]"
4,CCOc1cc(/C=C(/C#N)c2nc3ccccc3[nH]2)ccc1Oc1ccc([N+](=O)[O-])cn1,inactive
5,FC(F)(F)c1ccc(N2CCN(c3cc(-c4ccccc4)nc4ncnn34)CC2)nc1,"inconclusive: 3.98 µM [cytotoxic, partial curve, poor fit]"
6,Cc1ccc(S(=O)(=O)/N=C(\Sc2ccccc2)c2ccccc2)cc1,"inconclusive: 31.6 µM [cytotoxic, single point]"
7,O=c1cc(N2CCN(c3cccc(Cl)c3)CC2)[nH]c(=O)n1C1CCCCC1,"inconclusive: 10 µM [cytotoxic, partial curve, poor fit]"
8,C=CCN1C=CC(=O)[C@@H](OC(=O)Nc2ccc(Br)cc2)[C@H]1c1ccccc1Br,inactive
9,O=C(N/N=C/c1c(O)n(Cc2ccccc2)c(=O)c2ccccc12)c1cccnc1,inactive
10,Cc1c(N/N=C(\C#N)C(=O)c2ccccc2)c(=O)n(-c2ccccc2)n1C,active: 12.6 µM
11,Cc1c(-c2cccc(Cl)c2)nc2ccccc2c1C(=O)OC/C(O)=C(\C#N)c1nc2ccccc2[nH]1,"inconclusive: 22.4 µM [cytotoxic, partial curve, poor fit]"
12,CCCOc1ccccc1C1NC(=O)NC(C)=C1C(=O)OCc1ccccc1 (centres undefined),inactive
13,O=C(N/N=C/c1ccccc1O)C1CC(=O)N(c2ccc(F)cc2)C1 (centres undefined),"inconclusive: 4.47 µM [cytotoxic, partial curve, poor fit]"
14,Oc1ccc(Cl)cc1Sc1cc(Cl)ccc1O,"inconclusive: 28.2 µM [cytotoxic, single point]"
15,CN1CCN(c2nc(-c3ccccn3)nc3ccccc23)CC1,"inconclusive: 39.8 µM [cytotoxic, single point]"
16,CS(=O)(=O)N1CCc2cc(-c3csc(NC(=O)Cc4cccs4)n3)ccc21,"inconclusive: 3.16 µM [cytotoxic, single point]"
17,O=C(Nc1nc(NC(=O)c2ccco2)n(-c2ccccc2)n1)c1ccccc1,active: 22.4 µM
18,COc1ccc(/C=C2\SC(=S)N(CCCC(=O)Nc3ccccn3)C2=O)cc1OC,"inconclusive: 17.8 µM [cytotoxic, partial curve, poor fit]"
19,Cc1cc(-c2ccccc2)n(-c2cc(N/N=C/c3ccccc3O)ncn2)n1,"inconclusive: 15.8 µM [cytotoxic, partial curve]"
20,NS(=O)(=O)c1ccc(Nc2nc(-c3ccc(F)cc3)cs2)cc1,inactive
21,CCOC(=O)C(CC)(CC)C(=O)/C=C/c1ccc(OC)cc1,inactive
22,OC1(c2ccc(Cl)cc2)CCN(Cc2c[nH]c3ccccc23)CC1,inactive

row,Compound,Potency
1,Cc1ccc(C(C)C)c(OCc2ccc(C(=O)N/N=C/c3cccc(O)c3O)cc2)c1,"inconclusive: 10 µM [cytotoxic, partial curve]"
2,COC(=O)c1ccc2c(c1)C(C)(C)C(/C=C/c1ccc(OC)c(OC)c1OC)=[N+]2C,"inconclusive: 3.16 µM [cytotoxic, single point]"
3,CCCn1ncc(CN2CCC(C(=O)Nc3cccc(-c4cccc(F)c4)c3)CC2)c1C,"inconclusive: 31.6 µM [cytotoxic, single point]"
4,Cn1c(NCCN2CCCC2)nc2cc(-c3ccsc3)sc2c1=O,"inconclusive: 22.4 µM [cytotoxic, single point]"
5,Cc1cc(C)nc(N/N=C2/CCCC/C2=C\c2ccccc2)n1,"inconclusive: 7.08 µM [cytotoxic, partial curve, poor fit]"
6,COc1ccccc1C(=O)NNC1=C(C(=O)C(F)(F)F)CCC1,"inconclusive: 3.16 µM [cytotoxic, partial curve]"
7,Cc1ccc(/C=C2\SC(=S)N(CCCC(=O)Nc3ccccc3C(=O)O)C2=O)cc1,"inconclusive: 7.08 µM [cytotoxic, partial curve, poor fit]"
8,COc1ccc(CNCC(O)(c2ccc(Cl)cc2)c2ccc(Cl)cc2)cc1OC,"inconclusive: 5.01 µM [cytotoxic, single point]"
9,Cc1c(N=C2N=C(NC(=O)Nc3ccc(Cl)cc3)c3ccccc32)c(=O)n(-c2ccccc2)n1C,"inconclusive: 8.91 µM [cytotoxic, partial curve, poor fit]"
10,Cc1cccc(Nc2c3c(nc4ccccc24)CCC3)c1,"inconclusive: 25.1 µM [cytotoxic, single point]"
11,Cc1cc(N/N=C/c2ccc(O)cc2O)nc(-n2nc(C)cc2C)n1,"inconclusive: 12.6 µM [cytotoxic, partial curve]"
12,O=C(Nc1ccc(Cl)c(Cl)c1)Nc1nnc(CSc2ccccc2)s1,active: 2.51 µM
13,COc1ccc(O)c(/C=N/NC(=O)CCC(=O)Nc2cccc(C)c2)c1,"inconclusive: 22.4 µM [cytotoxic, partial curve, poor fit]"
14,O=C(N/N=C\c1cc(Cl)ccc1O)c1ccc(S(=O)(=O)N2CCCCC2)cc1,inactive
15,Cc1ccc2[nH]c(O)c(N=NC(=O)C3CC3c3ccccc3)c2c1Br (centres undefined),inactive
16,O=[N+]([O-])c1cc(Cl)cc(/C=N\Nc2ccccn2)c1O,"inconclusive: 7.94 µM [cytotoxic, partial curve]"
17,CCN(CCCn1c(=S)[nH]c2ccc(N3CCOCC3)cc2c1=O)c1ccccc1,inactive
18,Cn1ncc2c(Nc3cccc(Cl)c3)nc(Nc3cccc(Cl)c3)nc21,"inconclusive: 39.8 µM [cytotoxic, single point]"
19,O=C(NC(c1ccc(Cl)cc1)c1cc(Cl)c2cccnc2c1O)c1cccnc1 (centres undefined),active: 12.6 µM
20,COc1cc2c(cc1OC)C(C)N(C(=O)c1cc3c(s1)-c1ccccc1OC3)CC2 (centres undefined),inactive
21,O=C(NNc1ccnc2cc(Cl)ccc12)C1CCCCC1,inactive
22,CC(=O)NC(=C(Cl)Cl)S(=O)(=O)c1ccccc1,"inconclusive: 31.6 µM [cytotoxic, single point]"

# Molecules shown so far with fluorine (5):
row,Compound,Potency
5,FC(F)(F)c1ccc(N2CCN(c3cc(-c4ccccc4)nc4ncnn34)CC2)nc1,"inconclusive: 3.98 µM [cytotoxic, partial curve, poor fit]"
13,O=C(N/N=C/c1ccccc1O)C1CC(=O)N(c2ccc(F)cc2)C1 (centres undefined),"inconclusive: 4.47 µM [cytotoxic, partial curve, poor fit]"
20,NS(=O)(=O)c1ccc(Nc2nc(-c3ccc(F)cc3)cs2)cc1,inactive
3,CCCn1ncc(CN2CCC(C(=O)Nc3cccc(-c4cccc(F)c4)c3)CC2)c1C,"inconclusive: 31.6 µM [cytotoxic, single point]"
6,COc1ccccc1C(=O)NNC1=C(C(=O)C(F)(F)F)CCC1,"inconclusive: 3.16 µM [cytotoxic, partial curve]"
